Measured values from the supplement of paper PMC5949888.
Most values lie at the floor of the assay. Slopes are relative: functional sequences can read slightly below zero.

Test system: Saccharomyces cerevisiae PS128 hsf1 delta, HSF1(1-493) fusion
Test: growth estimate (transactivation domain function in HSF1 fusion, heat-shock survival) (a.u. (slope of normalised read count over time)); higher = stronger growth at 37°C, i.e. more transactivation activity
Details: library: random library

Substance	growth estimate
RHCLIRRERFASTRLPPLRS	< -0.25
RHFICRHTQPKCTNWY	< -0.25
RHFKRRRSAIVSMIATGPS	< -0.25
RHGIEHLALWSCLTVVQEIT	< -0.25
RHGSHDYQDNCEGARTGLCL	< -0.25
RHHYHG	< -0.25
RHKYGVL	< -0.25
RHLSFSLFGKQRMGSPGRGS	< -0.25
RHPCRTLR	< -0.25
RHPVPDGECTLSRGGDGTQG	< -0.25
RHQAGLIWQRCNWFSGLFPG	< -0.25
RHQYVDWHRCVKTCPSIRHA	< -0.25
RHRAHCSSRMKSEEFRAAST	< -0.25
RHRLCRETPTAVRTALLGKV	< -0.25
RHRSGVTEALISDVPRGPGP	< -0.25
RHSDGGSAS	< -0.25
RHSLSLKASRRLETAYSRGL	< -0.25
RHSPPYL	< -0.25
RHSQS	-0.228
RHSRP	< -0.25
RHSVRLSVINYRRYGRANCS	< -0.25
RHTDGLVRLLLRSAGPSSCS	< -0.25
RHTER	< -0.25
RHTFPEAYAFEFSAQLGRTV	< -0.25
RHTGWPDHVYAWSYASPDDL	< -0.25

Substance	growth estimate
RHTYEWLASKPHRPPICTRA	< -0.25
RHVAVLLTKTRQSF	< -0.25
RHVSTMVVKFRYTRRSRSDV	< -0.25
RIALTSGRGRFAEVGLRIWS	< -0.25
RIAVESAWTRRLRIRYDQPL	< -0.25
RICRLMMVLCALLAGVPSKG	< -0.25
RIDGMVRPKLRHMKGRLRAK	< -0.25
RIDLSSQFRTRN	< -0.25
RIDYPRPDHKVATRAGEIPR	< -0.25
RIDYSHDFTELNRIGVGVFT	< -0.25
RIERTQEQERYSGVASSCRA	< -0.25
RIFRNKLQTFIVCSDVRTGT	< -0.25
RIFSLRVFPL	< -0.25
RIGFLVTTRPKSRI	< -0.25
RIGKSSAPGKKVRLASRGKH	< -0.25
RIGPCSKLSMIVRMTAIFSY	< -0.25
RIHRSVIAFCHIYSAKAG	< -0.25
RIHTFRFSDGAGDFRVVA	< -0.25
RIHTKEFFYRVHSRQPGPAP	< -0.25
RIIASVRNCHLVAPYASNC	< -0.25
RIIDVNRKLETLGFYNRCSE	< -0.25
RIKFV	0.598
RIKRNDIVTDPPFVMEPNRW	< -0.25
RILCQRYPIYAWSR	< -0.25
RILHT	< -0.25

Substance	growth estimate
RILRDIPGS	< -0.25
RILTRLGYGVYIILPLGIRV	< -0.25
RILVRRLGDCMARCHQGKGL	< -0.25
RILYPRNKPLLHPVP	< -0.25
RIMVAAYQLAVRQPKL	< -0.25
RINRSDVCPAVSLIEVGDGL	< -0.25
RIPETRGLVAVEVRD	< -0.25
RIPGMGRLCRLRISTVMCIS	< -0.25
RIPGNTTCLIPVGGPHDVVS	< -0.25
RIPLIDESACGPESVVPVGV	< -0.25
RIPRPLGKLMDDRKR	< -0.25
RIPSARLR	< -0.25
RIPYLRFIL	< -0.25
RIRADGNVGTKYNLTGNGFH	< -0.25
RIRGEEIVGTSRGCRWDRLL	< -0.25
RIRGRSWCLVESSHRACRTA	< -0.25
RIRKGAALILTKRIACLVSA	< -0.25
RIRLQHDKGRACRLMGGALR	< -0.25
RIRNAKIGRFLYGVKMTKRH	< -0.25
RIRSLVL	< -0.25
RIRTPQGNRTRPKA	< -0.25
RISLREL	< -0.25
RISMGDSMELTIGVLLAKGI	< -0.25
RISNVLSDDIM	< -0.25
RISRVTL	< -0.25

Substance	growth estimate
RITFCAHVPVNMLTFSVSEA	< -0.25
RITGKMKRTHARGTYPEIAA	< -0.25
RITGSILLYRDNALGKSTPR	< -0.25
RITKTSKVASQAVLAMPSLL	< -0.25
RITT	< -0.25
RIVEAPRTH	< -0.25
RIVHAGQVGRDSS	< -0.25
RIVRKARSERTREEVRLLYC	< -0.25
RIWFPSGMWRADWPQSNIGR	< -0.25
RIYDGTPRAFPAGTQLRLTL	< -0.25
RKAQRGRWKTSFRIASLALL	< -0.25
RKASAYVRFCMHVRCVVQVL	< -0.25
RKCDHKSGHRMSIAWNRRRL	< -0.25
RKCHSAYNLRCVRLSCLTLW	< -0.25
RKELLEVLERC	< -0.25
RKFAYYTRRSRQHQFLGLMG	< -0.25
RKGED	< -0.25
RKGGFTASLVHNRYIKNRKQ	< -0.25
RKHAFEARCSWRGK	< -0.25
RKKAESRDGDVERRKVQFSS	< -0.25
RKLEAVF	< -0.25
RKLPPWNVLLTPSLRMCFVH	< -0.25
RKLVDLVVQIASPIGSVPDR	< -0.25
RKLVERWEFKRLQGSRHLTY	< -0.25
RKLVFSAIELNPAVEKQA	< -0.25

Reprinted from the results shown for reference:
Substance	growth estimate
RITKTSKVASQAVLAMPSLL	< -0.25
RITT	< -0.25
RIVEAPRTH	< -0.25
RIVHAGQVGRDSS	< -0.25
RIVRKARSERTREEVRLLYC	< -0.25

Random excerpt: 6 entries already listed, in no set order.
Substance	growth estimate
RIYDGTPRAFPAGTQLRLTL	< -0.25
RKLPPWNVLLTPSLRMCFVH	< -0.25
RKLEAVF	< -0.25
RIVEAPRTH	< -0.25
RIVRKARSERTREEVRLLYC	< -0.25
RKCHSAYNLRCVRLSCLTLW	< -0.25

Further results.

Substance	growth estimate
RKMAGRRPHTLYCGEESGWA	< -0.25
RKMIVLLSLLDAVIRARPAA	< -0.25
RKMMITVMYASTASGCHSPV	< -0.25
RKNWPGPPAILE	< -0.25
RKPLVQKRLLYGNRLSWRDD	< -0.25
RKRACQTVCREPGGVRCAQR	< -0.25
RKRLYRKEACR	< -0.25
RKSAVTWKFDEVGHDHATRK	< -0.25
RKSGVR	< -0.25
RKSHYLAGSACQRSRLWRWG	< -0.25
RKSVVESGTGFIWSSG	< -0.25
RKVAVVPVRESVFTSGDGSW	< -0.25
RKVL	< -0.25
RKVSEVWPIAELLW	< -0.25
RKVVLDP	< -0.25
RKVYGLFGM	< -0.25
RKWEESMPPAGTKSKKGWGC	< -0.25
RKWRRRSNPLFKTEVVDLDR	< -0.25
RKYLNRKRGVWTRGRNFENG	< -0.25
RLAAAAKH	< -0.25
RLAAGPRNQFISSCIASTNA	< -0.25
RLADKRTPYFSARGNVRDPL	< -0.25
RLAGPGSK	< -0.25
RLAIYRRSVHSIKPPGLACT	< -0.25
RLAPLNERYPWNTPAYLREK	< -0.25

Substance	growth estimate
RLARSASGGYERSGRNQRQG	< -0.25
RLARVES	< -0.25
RLASLPGFLDSRQAFTPCLP	< -0.25
RLATAREH	< -0.25
RLAVSPSPAGGNTFGPAPSP	< -0.25
RLAVVHTEYQRTGVLLTL	< -0.25
RLC	< -0.25
RLCKHNESGGMRFFRPQVDI	< -0.25
RLCYHPSRPYAGGSCGAHRS	< -0.25
RLCYSQVSALNIRFIRG	< -0.25
RLDDDVKNHGSFRSPVS	< -0.25
RLEVINVGFLKGWVQASQTI	< -0.25
RLFEAQGLTESQCL	< -0.25
RLFHVSSGSPSTQPRNPTRS	< -0.25
RLFRVFWEPSPGMVA	< -0.25
RLGEGWRFAVRFTGISRTAS	< -0.25
RLGFRAPLR	< -0.25
RLGG	< -0.25
RLGPKRPMGPTDG	< -0.25
RLGRAEVQWLARR	< -0.25
RLGRAPNRPVRIIRF	< -0.25
RLGRGCAIESRLAVRTILGM	< -0.25
RLGSLTKHNVSQQKVHRPTN	< -0.25
RLGSQTAWACWTGW	-0.205
RLH	< -0.25

Substance	growth estimate
RLHIGCQDVGGFEHSWGEFG	< -0.25
RLHLLGCVKFVSKINESALY	< -0.25
RLI	< -0.25
RLIAFGGSLGDES	< -0.25
RLIGV	< -0.25
RLIPCKFVFSCQLSKEGGHG	< -0.25
RLIPKGHSQVRGKETRERGR	< -0.25
RLKASTGASANGKICTAL	< -0.25
RLKLCRDRLGIRLIRPYPWE	< -0.25
RLLDIIAFSLDHRCLHVVFC	< -0.25
RLLGRLRSLSPSKRGGKGTG	< -0.25
RLLGVTAFVEVRFIKAI	< -0.25
RLLKGITRRLRAYSSR	< -0.25
RLLVPGLHLWGLTYQLRSFV	< -0.25
RLMRSRVD	< -0.25
RLMSRLKSKDPL	< -0.25
RLNASTVLYGVRSYLRCAFD	< -0.25
RLNRTRAL	< -0.25
RLNRYLQLYMKREFYYRASA	< -0.25
RLPEFRAAANRAQTRNV	< -0.25
RLPSVKAEGTVRYN	< -0.25
RLPTVSTSW	< -0.25
RLPWHWALFRATAGRISK	< -0.25
RLQDI	< -0.25
RLQYGQ	< -0.25

Substance	growth estimate
RLRECPKV	< -0.25
RLRETR	< -0.25
RLRGSACETATTHGVRWVCL	< -0.25
RLRI	< -0.25
RLRILSYM	< -0.25
RLRKN	-0.246
RLRSQVGRVITKCQNSCTLW	< -0.25
RLRSSNMSRYSVVLVHFRIP	< -0.25
RLRSVGTQGPPVS	< -0.25
RLSAVPISLPSFVEVIVSSE	< -0.25
RLSLRGLDYGPARARAFKLG	< -0.25
RLSRRFGAIRQP	< -0.25
RLSTAQCSNHSRSKPQAWVQ	< -0.25
RLSTNDVRSQSKRRVKVKIG	-0.245
RLSTQIGGFPV	< -0.25
RLSVNQSAWNFFSDGLIWCC	-0.227
RLSYRSRVSLLASHGCVVTG	-0.245
RLTAAAGNRSTPFE	< -0.25
